For 14 compounds, odorant receptor activation results are on record in the odorant receptor screen of Mainland et al. (2015).

Test systems include OR8U1 clone 1242; OR8U8 clone 1499; OR8U9 clone 1439; OR9A2 clone 1080; OR9A4 clone 1081; OR9G1 clone 1111; OR9G4 N191D clone 1109; OR9G9 clone 1170; OR9I1 clone 1180.
Holding throughout (test): odorant receptor activation (CRE luciferase / Renilla) (fold of no-odor wells); higher = more activation
What all share (conditions): 100 µM

The test system of assay [1] is OR8S1 M48V/L82P/R128C/A198T clone 1279.

The structures appear in SMILES notation. Several values for one entry are separate records, joined by “and”; a condition that tells them apart may be missing. Equal values may be shown once. This is one part of the list. Single wells; the ratio to wells without odorant was worked out here, and repeats agree poorly.

As for `CCCCCOC(C)=O` [n-amyl acetate], the odorant receptor activation was 0.392 in assay [1]; 0.286 in the assay on OR8U1 clone 1242; 0.942 and 0.855 in the assay on OR8U8 clone 1499; 0.765 in the assay on OR8U9 clone 1439; 0.841 in the assay on OR9A2 clone 1080; 1.74 in the assay on OR9A4 clone 1081. The odorant receptor activation with OR9G1 clone 1111 came out at 1.84; with OR9G4 N191D clone 1109, 1.5; with OR9G9 clone 1170 it was 0.681; in the assay on OR9I1 clone 1180 it was 0.682.

With `CC(C)CC(=O)O` [isovaleric acid], the odorant receptor activation in assay [1] came to 0.784; in the assay with OR8U1 clone 1242, 1.13; with OR8U8 clone 1499 it was 1.14; with OR8U9 clone 1439, 1.04; in the assay on OR9A2 clone 1080, 1.39; in the assay with OR9A4 clone 1081, 1.07. The odorant receptor activation is 0.958 in the assay with OR9G1 clone 1111, 1.21 with OR9G4 N191D clone 1109, 1.15 in the assay on OR9G9 clone 1170 and 1.19 in the assay on OR9I1 clone 1180.

Take `CCCCCC(=O)O` [caproic acid]: the odorant receptor activation in assay [1] was determined as 0.799; in the assay on OR8U1 clone 1242, 0.84; in the assay with OR8U8 clone 1499, 0.946; in the assay with OR8U9 clone 1439, 0.118; in the assay with OR9A2 clone 1080, 0.987; with OR9A4 clone 1081, 0.77. Also, the odorant receptor activation came to 1.02 in the assay on OR9G1 clone 1111, 1.11 with OR9G4 N191D clone 1109, 0.98 in the assay with OR9G9 clone 1170 and 0.975 with OR9I1 clone 1180.

On to `O=CCc1ccccc1` [phenyl acetaldehyde], for which the odorant receptor activation came out at 1.22 in [1]; 1.31 in the assay on OR8U1 clone 1242; 0.965 with OR8U8 clone 1499; 1.31 in the assay on OR8U9 clone 1439; 1.39 in the assay on OR9A2 clone 1080; 1.06 in the assay with OR9A4 clone 1081. Also, the odorant receptor activation came to 0.85 with OR9G1 clone 1111, 1.43 in the assay with OR9G4 N191D clone 1109, 1.27 in the assay with OR9G9 clone 1170 and 0.951 in the assay on OR9I1 clone 1180.

Regarding `C=CCc1ccc(O)c(OC)c1` [eugenol], the odorant receptor activation in assay [1] is 1.43 and 1.42; in the assay on OR8U1 clone 1242, 0.65 and 1.53; in the assay on OR8U8 clone 1499, 1.96 and 1.03 and 1.06; in the assay on OR8U9 clone 1439, 1.7 and 1.4; in the assay on OR9A2 clone 1080, 0.662 and 1.54; in the assay on OR9A4 clone 1081 it was 0.936 and 1.48. The odorant receptor activation with OR9G1 clone 1111 was 1.83 and 1.58; in the assay with OR9G4 N191D clone 1109, 1.55 and 1.46; in the assay on OR9G9 clone 1170, 2.27 and 1.53; in the assay with OR9I1 clone 1180 it was 1.74 and 1.12.

As to `CC(=O)OCC=C(C)CCC=C(C)C` [geranyl acetate], the odorant receptor activation is 0.927 and 1.3 in [1]; 1.78 and 1.53 in the assay on OR8U1 clone 1242; 1.16 in the assay with OR8U9 clone 1439; 0.883 in the assay on OR9A2 clone 1080; 8.94 with OR9A4 clone 1081; 1.82 in the assay with OR9G1 clone 1111. Moreover, the results for the odorant receptor activation with OR9G4 N191D clone 1109, in the assay on OR9G9 clone 1170 and in the assay on OR9I1 clone 1180 were 0.603, 0.967 and 0.881, respectively.

`CCCCCCOC(=O)CCC` [hexyl butyrate]: the odorant receptor activation in assay [1] was 1.01 and 0.862; in the assay with OR8U1 clone 1242, 0.956 and 1.51; with OR8U8 clone 1499, 0.711 and 1.02; in the assay with OR8U9 clone 1439, 0.923; in the assay on OR9A2 clone 1080, 0.391; in the assay on OR9A4 clone 1081, 0.754. The odorant receptor activation in the assay on OR9G1 clone 1111 came to 0.819; with OR9G4 N191D clone 1109, 0.395; with OR9G9 clone 1170, 0.762; in the assay with OR9I1 clone 1180, 0.991.

Consider `C=CCSCC=C` [diallyl sulfide], for which the odorant receptor activation turned out to be 0.97 in [1]; 1 in the assay with OR8U1 clone 1242; 1.11 in the assay with OR8U8 clone 1499; 1.14 with OR8U9 clone 1439; 0.915 in the assay with OR9A2 clone 1080; 1.02 in the assay on OR9A4 clone 1081. Moreover, the odorant receptor activation is 1.33 with OR9G1 clone 1111, 1.1 in the assay on OR9G4 N191D clone 1109, 1.06 in the assay on OR9G9 clone 1170 and 0.989 in the assay with OR9I1 clone 1180.

On to `CC(C)(C)c1ccc(CCC=O)cc1` [bourgeonal], for which the odorant receptor activation came to 0.785 in assay [1]; 0.764 in the assay with OR8U1 clone 1242; 1.09 in the assay on OR8U8 clone 1499; 0.119 with OR8U9 clone 1439; 0.899 with OR9A2 clone 1080; 0.721 with OR9A4 clone 1081. In addition, the odorant receptor activation was 0.792 in the assay with OR9G1 clone 1111, 0.808 in the assay on OR9G4 N191D clone 1109, 0.967 with OR9G9 clone 1170 and 0.643 in the assay with OR9I1 clone 1180.

Consider `CCCCCCCOC(C)=O` [heptyl acetate], for which the odorant receptor activation in assay [1] is 0.975 and 1.17; with OR8U1 clone 1242, 1.24 and 1.63; with OR8U9 clone 1439 it was 0.938; in the assay with OR9A2 clone 1080 it was 0.9; in the assay on OR9A4 clone 1081, 10.5; with OR9G1 clone 1111, 1.66. In addition, the figures for the odorant receptor activation with OR9G4 N191D clone 1109, in the assay with OR9G9 clone 1170 and in the assay on OR9I1 clone 1180 were 0.628, 0.828 and 1.11, respectively.

Turning to `COC(=O)c1ccccc1` [methyl benzoate], the odorant receptor activation in assay [1] is 0.542; in the assay on OR8U1 clone 1242, 0.242; in the assay on OR8U8 clone 1499, 0.981 and 0.971; in the assay with OR8U9 clone 1439 it was 0.771; in the assay on OR9A2 clone 1080, 1.07; in the assay with OR9A4 clone 1081 it was 1.62. The odorant receptor activation worked out at 1.88 in the assay on OR9G1 clone 1111, 0.872 in the assay on OR9G4 N191D clone 1109, 0.851 in the assay with OR9G9 clone 1170 and 0.848 in the assay on OR9I1 clone 1180.

Consider `COc1cc(C=O)ccc1O` [vanillin], for which the odorant receptor activation was 1.03 in [1]; 1.2 in the assay on OR8U1 clone 1242; 0.882 with OR8U8 clone 1499; 1.01 in the assay with OR8U9 clone 1439; 1 in the assay with OR9A2 clone 1080; 0.913 in the assay with OR9A4 clone 1081. In addition, the odorant receptor activation amounted to 0.797 with OR9G1 clone 1111, 0.956 in the assay on OR9G4 N191D clone 1109, 1.34 in the assay with OR9G9 clone 1170 and 0.905 with OR9I1 clone 1180.

For `COc1ccccc1O` [guaiacol], the odorant receptor activation is 0.949 and 0.884 in assay [1]; 1.54 in the assay with OR8U1 clone 1242; 0.796 with OR8U9 clone 1439; 1.04 in the assay on OR9A2 clone 1080; 6.14 in the assay on OR9A4 clone 1081; 1.38 with OR9G1 clone 1111. Moreover, the odorant receptor activation in the assay with OR9G4 N191D clone 1109 turned out to be 0.753; in the assay on OR9G9 clone 1170, 1.03; in the assay with OR9I1 clone 1180, 0.971.

For `CCCCCCC=O` [heptaldehyde], the odorant receptor activation in [1] is 0.417 and 0.727 and 0.955; in the assay with OR8U9 clone 1439 it was 1.23 and 1.04; in the assay on OR9A2 clone 1080, 0.542 and 1.2; with OR9G1 clone 1111 it was 1.72 and 1.9; with OR9G4 N191D clone 1109 it was 1.46 and 0.659; in the assay with OR9G9 clone 1170, 0.371 and 0.98. The odorant receptor activation with OR9I1 clone 1180 was 0.387 and 1.03.
